# Source: patent US9968626B2, “Method for treating obesity” (Rhamnopharma Inc., priority 2011, dated 2018)
# For at least one compound, name, drawing or mass did not settle the structure.
# Test: Body weight of allergic-rhinitis-sensitized Balb/C mice after intranasal rhamnolipid doses (Example 1)
# Type: in vivo
# Conditions: 0.5% solution in saline, 5 μl per nostril at two time points on Day 37 (total 20 μl)
# Text: Originally, the objective of this study was to determine the effects of treatment with three different pharmaceutical formulations of rhamnolipids within the context of an allergic rhinitis study in mice. However, the weight loss effects due to treatment with the various rhamnolipids were unexpectedly discovered during the course of this study. Materials Animal: Balb/C mice were used in this study and were eight weeks old. The treatment groups and the placebo group were each composed of 10 mice. Allergenization was performed in a similar fashion as reported in the literature. Sensitization Materials: The following were used to sensitize and induce allergic rhinitis in the mice:
# Mice were sensitized once-weekly with four intraperitoneal injections of OVA/Alum (Day 0, […], 14 and 21). From Day 22-39, anesthetized mice were administered once-daily doses of the OVA stock solution instilled in each nostril.
# On Day 37, mice were assigned to one of three rhamnolipid treatment groups or a placebo group. The rhamnolipid treatment groups received a rhamnolipid mixture containing RPI-100, RPI-200, or RPI-300. […] Body weights of the mice were measured and recorded on Days 35, 37, and 39 as part of a standard animal safety observation protocol. […]
compound,measurement,value
"CCCCCCCC(CC(=O)O)OC(=O)CC(CCCCCCC)OC1OC(C)C(O)C(O)C1OC1OC(C)C(O)C(O)C1O [RPI-300, L-rhamnosyl-L-rhamnosyl-β-hydroxydecanoyl-β-hydroxydecanoate]","body weight, 2 days post-treatment (Day 39) compared with 2 days pre-treatment (Day 35), versus placebo",statistically significant reduction in body weight
